Experimental data from article doi:10.1101/2023.01.27.525918.
The exact form of at least one protein or probe is not confirmed. At least one verdict was read from the data and is not stated in words by the source.

Tested on: ZUP1 + RPA complex WT (RPA70/RPA32/RPA14)
Assay: SEC
Conditions: ZUP1-RPA interaction maintained in presence of dT100

Sequence: TTTTTTTTTTTTTTTTTTTTTTTTTTTTTTTTTTTTTTTTTTTTTTTTTTTTTTTTTTTTTTTTTTTTTTTTTTTTTTTTTTTTTTTTTTTTTTTTTTTT [dT100]
- binding result: binds
